# Measured values: the supplement of paper PMC10032668
# By UniProt entry, the sequences of proteins in these tests, tags left out.
# EIF1, P41567, UniProt P41567, whole entry: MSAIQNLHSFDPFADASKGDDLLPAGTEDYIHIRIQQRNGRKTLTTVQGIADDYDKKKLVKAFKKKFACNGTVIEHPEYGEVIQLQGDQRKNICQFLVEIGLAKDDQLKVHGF
# NDUFA8, P51970, UniProt P51970, whole entry: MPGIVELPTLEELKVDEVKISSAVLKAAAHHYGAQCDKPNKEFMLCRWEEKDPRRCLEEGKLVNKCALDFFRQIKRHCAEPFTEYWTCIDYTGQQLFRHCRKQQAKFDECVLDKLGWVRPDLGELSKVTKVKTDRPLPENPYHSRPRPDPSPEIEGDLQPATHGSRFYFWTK
# PARK7, Q99497, UniProt Q99497, whole entry: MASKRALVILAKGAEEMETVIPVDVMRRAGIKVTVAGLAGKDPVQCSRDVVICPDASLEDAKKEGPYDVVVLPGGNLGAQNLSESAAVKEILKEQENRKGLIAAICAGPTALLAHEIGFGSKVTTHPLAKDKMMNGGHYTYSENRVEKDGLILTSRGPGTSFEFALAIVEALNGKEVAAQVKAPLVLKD
# PCBP2, Q15366, UniProt Q15366, whole entry: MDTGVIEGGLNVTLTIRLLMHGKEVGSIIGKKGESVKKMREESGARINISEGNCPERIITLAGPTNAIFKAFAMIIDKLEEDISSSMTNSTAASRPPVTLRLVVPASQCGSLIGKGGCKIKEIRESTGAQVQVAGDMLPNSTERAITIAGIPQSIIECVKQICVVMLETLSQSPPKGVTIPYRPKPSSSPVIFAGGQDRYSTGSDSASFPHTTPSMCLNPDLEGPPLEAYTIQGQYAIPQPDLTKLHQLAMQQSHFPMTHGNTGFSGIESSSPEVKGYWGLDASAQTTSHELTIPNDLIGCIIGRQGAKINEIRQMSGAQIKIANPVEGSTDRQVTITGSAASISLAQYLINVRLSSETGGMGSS
# SNX1, Q13596, UniProt Q13596, whole entry: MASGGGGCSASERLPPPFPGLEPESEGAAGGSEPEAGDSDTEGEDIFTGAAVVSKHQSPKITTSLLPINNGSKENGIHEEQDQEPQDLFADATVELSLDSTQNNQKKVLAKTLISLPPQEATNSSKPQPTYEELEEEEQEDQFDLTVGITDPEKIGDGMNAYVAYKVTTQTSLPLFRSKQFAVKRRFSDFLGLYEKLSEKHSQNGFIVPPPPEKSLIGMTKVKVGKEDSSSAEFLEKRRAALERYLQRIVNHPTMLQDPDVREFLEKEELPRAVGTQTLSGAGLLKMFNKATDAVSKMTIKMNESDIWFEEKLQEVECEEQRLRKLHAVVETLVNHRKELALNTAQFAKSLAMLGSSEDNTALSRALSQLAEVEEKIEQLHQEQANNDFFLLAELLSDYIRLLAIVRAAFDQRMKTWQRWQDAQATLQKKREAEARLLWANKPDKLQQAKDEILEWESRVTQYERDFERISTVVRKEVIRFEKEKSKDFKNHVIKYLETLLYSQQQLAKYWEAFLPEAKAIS
# EIF3G, O75821, UniProt O75821, whole entry: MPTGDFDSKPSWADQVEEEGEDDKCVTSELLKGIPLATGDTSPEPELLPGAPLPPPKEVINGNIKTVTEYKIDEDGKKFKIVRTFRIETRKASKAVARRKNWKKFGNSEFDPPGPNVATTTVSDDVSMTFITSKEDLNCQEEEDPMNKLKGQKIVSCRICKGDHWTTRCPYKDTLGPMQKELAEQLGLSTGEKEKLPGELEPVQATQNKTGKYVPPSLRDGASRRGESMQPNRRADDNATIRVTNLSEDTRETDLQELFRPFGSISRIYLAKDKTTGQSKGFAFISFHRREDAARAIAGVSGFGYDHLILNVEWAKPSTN
# IDH1, O75874, UniProt O75874, whole entry: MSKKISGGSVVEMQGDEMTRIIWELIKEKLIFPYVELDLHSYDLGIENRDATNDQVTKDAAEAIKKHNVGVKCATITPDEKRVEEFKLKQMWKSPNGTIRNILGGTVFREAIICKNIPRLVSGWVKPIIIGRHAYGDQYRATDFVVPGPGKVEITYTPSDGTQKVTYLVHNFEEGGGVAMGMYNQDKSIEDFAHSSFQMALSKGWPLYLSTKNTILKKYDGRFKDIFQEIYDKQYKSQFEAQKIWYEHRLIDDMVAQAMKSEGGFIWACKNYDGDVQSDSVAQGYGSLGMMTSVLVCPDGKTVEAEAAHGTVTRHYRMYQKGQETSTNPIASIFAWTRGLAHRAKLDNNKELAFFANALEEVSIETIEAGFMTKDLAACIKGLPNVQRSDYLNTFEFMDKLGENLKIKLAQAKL
# NDUFB9, Q9Y6M9, UniProt Q9Y6M9, whole entry: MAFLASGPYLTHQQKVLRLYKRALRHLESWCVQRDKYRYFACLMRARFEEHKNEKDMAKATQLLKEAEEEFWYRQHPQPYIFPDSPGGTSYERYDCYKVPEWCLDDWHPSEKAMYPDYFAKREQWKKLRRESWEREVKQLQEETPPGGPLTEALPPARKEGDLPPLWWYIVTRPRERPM
# PDLIM7, Q9NR12, UniProt Q9NR12, whole entry: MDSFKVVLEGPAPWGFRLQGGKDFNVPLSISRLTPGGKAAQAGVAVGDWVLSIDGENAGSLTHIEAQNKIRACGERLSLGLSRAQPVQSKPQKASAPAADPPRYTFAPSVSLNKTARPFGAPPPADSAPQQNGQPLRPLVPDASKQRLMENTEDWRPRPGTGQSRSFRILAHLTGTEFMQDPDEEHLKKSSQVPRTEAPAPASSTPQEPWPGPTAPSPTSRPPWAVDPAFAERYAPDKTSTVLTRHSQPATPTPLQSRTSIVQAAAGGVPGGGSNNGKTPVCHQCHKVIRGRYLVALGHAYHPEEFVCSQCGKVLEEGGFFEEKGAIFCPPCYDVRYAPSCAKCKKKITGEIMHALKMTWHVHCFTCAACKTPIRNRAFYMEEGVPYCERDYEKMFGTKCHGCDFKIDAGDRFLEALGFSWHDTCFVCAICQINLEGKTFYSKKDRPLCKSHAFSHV
# Some of the results follow. The list holds hits alone, and they repeat only in part.
# How the values were obtained:
# Assay in all cases: PRISMA enrichment of interactor (LFQ) in peptide spot vs all other peptide spots (log2 fold change); higher = stronger / more specific binding of the interactor to the peptide
# ACAA2, P42765 = biological target: ACAA2, P42765
# Method: (§1)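 PRISMA: 15-aa overlapping tiles (offset 8 aa) of 60 microproteins, plus SOS1/GLUT1 control peptides, were spot-synthesized on cellulose membranes in triplicate. Membranes were incubated with benzonase-treated HEK293T lysate, and bound proteins were identified by LC-MS/MS with LFQ. Enrichment is the log2 fold change of each protein in one spot versus all other spots. Only interactors passing the significance cutoff are listed.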
# BZW2, Q9Y6E2 = biological target: BZW2, Q9Y6E2
# Method: as §1
# DHTKD1, Q96HY7 = biological target: DHTKD1, Q96HY7
# Method: as §1
# ARHGEF2, Q92974 = biological target: ARHGEF2, Q92974
# Method: as §1
# CAPZA1, P52907 = biological target: CAPZA1, P52907
# Method: as §1
# COPZ1, P61923 = biological target: COPZ1, P61923
# Method: as §1
# EIF1, P41567 = biological target: EIF1, P41567
# Method: as §1
# LSG1, Q9H089 = biological target: LSG1, Q9H089
# Method: as §1
# MPP1, Q00013 = biological target: MPP1, Q00013
# Method: as §1
# MRPL44, Q9H9J2 = biological target: MRPL44, Q9H9J2
# Method: as §1
# NDUFA8, P51970 = biological target: NDUFA8, P51970
# Method: as §1
# NOP56, O00567 = biological target: NOP56, O00567
# Method: as §1
# PARK7, Q99497 = biological target: PARK7, Q99497
# Method: as §1
# PCBP2, Q15366 = biological target: PCBP2, Q15366
# Method: as §1
# SLC4A1AP, Q9BWU0 = biological target: SLC4A1AP, Q9BWU0
# Method: as §1
# SNX1, Q13596 = biological target: SNX1, Q13596
# Method: as §1
# STAT1, P42224 = biological target: STAT1, P42224
# Method: as §1
# ZC3H11A, O75152 = biological target: ZC3H11A, O75152
# Method: as §1
# ALDH4A1, P30038 = biological target: ALDH4A1, P30038
# Method: as §1
# ALG6, Q9Y672 = biological target: ALG6, Q9Y672
# Method: as §1
# ATG4B, Q9Y4P1 = biological target: ATG4B, Q9Y4P1
# Method: as §1
# CENPB, P07199 = biological target: CENPB, P07199
# Method: as §1
# CENPV, Q7Z7K6 = biological target: CENPV, Q7Z7K6
# Method: as §1
# CGN, Q9P2M7 = biological target: CGN, Q9P2M7
# Method: as §1
# CHD4, Q14839 = biological target: CHD4, Q14839
# Method: as §1
# CSNK2A2, P19784 = biological target: CSNK2A2, P19784
# Method: as §1
# DDX42, Q86XP3 = biological target: DDX42, Q86XP3
# Method: as §1
# DYNC2H1, Q8NCM8 = biological target: DYNC2H1, Q8NCM8
# Method: as §1
# EIF3G, O75821 = biological target: EIF3G, O75821
# Method: as §1
# FYTTD1, Q96QD9 = biological target: FYTTD1, Q96QD9
# Method: as §1
# HNRNPDL, O14979 = biological target: HNRNPDL, O14979
# Method: as §1
# IDH1, O75874 = biological target: IDH1, O75874
# Method: as §1
# MMS19, Q96T76 = biological target: MMS19, Q96T76
# Method: as §1
# MRPL43, Q8N983 = biological target: MRPL43, Q8N983
# Method: as §1
# MRPL55, Q7Z7F7 = biological target: MRPL55, Q7Z7F7
# Method: as §1
# MRPS10, P82664 = biological target: MRPS10, P82664
# Method: as §1
# NDUFB9, Q9Y6M9 = biological target: NDUFB9, Q9Y6M9
# Method: as §1
# NUP88, Q99567 = biological target: NUP88, Q99567
# Method: as §1
# PDLIM7, Q9NR12 = biological target: PDLIM7, Q9NR12
# Method: as §1
# PEBP1, P30086 = biological target: PEBP1, P30086
# Method: as §1
# POLR2C, P19387 = biological target: POLR2C, P19387
# Method: as §1
# PPP1CC, P36873 = biological target: PPP1CC, P36873
# Method: as §1
# SYNCRIP, O60506 = biological target: SYNCRIP, O60506
# Method: as §1
# TBCD, Q9BTW9 = biological target: TBCD, Q9BTW9
# Method: as §1
# YWHAH, Q04917 = biological target: YWHAH, Q04917
# Method: as §1
binder,measurement,setting,value
AAEFYSRGRKQRRPS [LINC01560],PRISMA enrichment of interactor (log2),"ACAA2, P42765",4.57
same,PRISMA enrichment of interactor (log2),"BZW2, Q9Y6E2",5.89
same,PRISMA enrichment of interactor (log2),"DHTKD1, Q96HY7",9.15
TLQLSVLVAFASGVL,PRISMA enrichment of interactor (log2),"ACAA2, P42765",5.21
same,PRISMA enrichment of interactor (log2),"ARHGEF2, Q92974",5.73
same,PRISMA enrichment of interactor (log2),"CAPZA1, P52907",4.53
same,PRISMA enrichment of interactor (log2),"COPZ1, P61923",4.3
same,PRISMA enrichment of interactor (log2),"EIF1, P41567",4.76
same,PRISMA enrichment of interactor (log2),"LSG1, Q9H089",5.36
same,PRISMA enrichment of interactor (log2),"MPP1, Q00013",4.86
same,PRISMA enrichment of interactor (log2),"MRPL44, Q9H9J2",6.17
same,PRISMA enrichment of interactor (log2),"NDUFA8, P51970",4.55
same,PRISMA enrichment of interactor (log2),"NOP56, O00567",5.62
same,PRISMA enrichment of interactor (log2),"PARK7, Q99497",4.75
same,PRISMA enrichment of interactor (log2),"PCBP2, Q15366",4.17
same,PRISMA enrichment of interactor (log2),"SLC4A1AP, Q9BWU0",6.69
same,PRISMA enrichment of interactor (log2),"SNX1, Q13596",5.18
same,PRISMA enrichment of interactor (log2),"STAT1, P42224",4.41
same,PRISMA enrichment of interactor (log2),"ZC3H11A, O75152",4.32
VAFASGVLLGWQANR,PRISMA enrichment of interactor (log2),"ACAA2, P42765",5.16
same,PRISMA enrichment of interactor (log2),"ALDH4A1, P30038",5.78
same,PRISMA enrichment of interactor (log2),"ALG6, Q9Y672",4.31
same,PRISMA enrichment of interactor (log2),"ATG4B, Q9Y4P1",4.87
same,PRISMA enrichment of interactor (log2),"CENPB, P07199",5.54
same,PRISMA enrichment of interactor (log2),"CENPV, Q7Z7K6",7.38
same,PRISMA enrichment of interactor (log2),"CGN, Q9P2M7",5.01
same,PRISMA enrichment of interactor (log2),"CHD4, Q14839",6.2
same,PRISMA enrichment of interactor (log2),"CSNK2A2, P19784",10.5
same,PRISMA enrichment of interactor (log2),"DDX42, Q86XP3",7.29
same,PRISMA enrichment of interactor (log2),"DYNC2H1, Q8NCM8",5.45
same,PRISMA enrichment of interactor (log2),"EIF3G, O75821",7.52
same,PRISMA enrichment of interactor (log2),"FYTTD1, Q96QD9",4.21
same,PRISMA enrichment of interactor (log2),"HNRNPDL, O14979",7.91
same,PRISMA enrichment of interactor (log2),"IDH1, O75874",4.97
same,PRISMA enrichment of interactor (log2),"MMS19, Q96T76",4.54
same,PRISMA enrichment of interactor (log2),"MRPL43, Q8N983",4.45
same,PRISMA enrichment of interactor (log2),"MRPL55, Q7Z7F7",5.1
same,PRISMA enrichment of interactor (log2),"MRPS10, P82664",5.21
same,PRISMA enrichment of interactor (log2),"NDUFB9, Q9Y6M9",6.55
same,PRISMA enrichment of interactor (log2),"NUP88, Q99567",4.58
same,PRISMA enrichment of interactor (log2),"PDLIM7, Q9NR12",5.17
same,PRISMA enrichment of interactor (log2),"PEBP1, P30086",5.59
same,PRISMA enrichment of interactor (log2),"POLR2C, P19387",5.24
same,PRISMA enrichment of interactor (log2),"PPP1CC, P36873",4.45
same,PRISMA enrichment of interactor (log2),"SYNCRIP, O60506",8.27
same,PRISMA enrichment of interactor (log2),"TBCD, Q9BTW9",6.02
same,PRISMA enrichment of interactor (log2),"YWHAH, Q04917",8.26

# Reprinted from the results shown for reference:
binder,measurement,setting,value
TLQLSVLVAFASGVL,PRISMA enrichment of interactor (log2),"NOP56, O00567",5.62
same,PRISMA enrichment of interactor (log2),"PARK7, Q99497",4.75
same,PRISMA enrichment of interactor (log2),"PCBP2, Q15366",4.17
